Paper PMC5725533

T1: GST-tagged EML1 N-ter (EML1 N-terminal domain, amino acids 1-174) (UniProt O00423)
T1 sequence: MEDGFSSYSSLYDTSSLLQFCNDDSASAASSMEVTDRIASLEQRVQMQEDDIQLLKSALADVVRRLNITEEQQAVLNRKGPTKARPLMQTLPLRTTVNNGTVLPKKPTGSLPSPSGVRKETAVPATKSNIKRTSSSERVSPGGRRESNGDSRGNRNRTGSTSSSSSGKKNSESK


Molecular target: T1, GST-tagged EML1 N-ter (EML1 N-terminal domain, amino acids 1-174)
Assay: affinity purification with mass spectrometry; purified GST-EML1 N-ter (4 μg) coupled to Glutathione-Agarose resin, incubated overnight with E13.5 mouse embryonic cortex extract; lysis buffer Tris HCl 50 mM, NaCl 150 mM, EDTA 1 mM pH 8, 1% NP-40; bound fractions by nano LC-MS/MS, label-free XIC quantification against GST control; two independent pull-downs; only the target purified

binding	Binder
binds	Eml2 (protein, UniProt Q7TNG5 1-649) MSSFGIGKTKEVIFSMEEGSVKMFLRGRPVPMLIPDELAPTYSLDTRSELPSSRLKLDWVYGYRGRDCRANLYLLPTGEVVYFVASVAVLYSVEEQRQRHYLGHNDDIKCLAVHPDMVTIATGQVAGTTKEGKPLPPHVRVWDSVSLSTLHVLGLGVFDRAVCCVAFSKSNGGNLLCAVDESNDHVLSVWDWAKESKVVDSKCSNEAVLVATFHPTDPSLLITCGKSHIYFWSLEGGSLSKRQGLFEKHEKPKYVLCVTFLEGGDVVTGDSGGNLYVWGKGGNRITQEVQGAHDGGVFALCALRDGTLVSGGGRDRRVVLWGSDYSKVQEVEVPEDFGPVRTVAEGRGDTLYVGTTRNSILLGSVHTGFSLLVQGHVEELWGLATHPSRAQFVTCGQDKLVHLWSSETHQPVWSRSIEDPARSAGFHPSGSVLAVGTVTGRWLLLDTETHDLVAIHTDGNEQISVVSFSPDGAYLAVGSHDNLVYVYTVDQGGRKVSRLGKCSGHSSFITHLDWAQDSTCFVTNSGDYEILYWDPVTCKQITSADTVRNVEWATATCVLGFGVFGIWPEGADGTDINAVARSHDGKLLVSADDFGKVHLFSYPCCQPRALSHKYGGHSSHVTNVAFLWDDSMALTTGGKDTSVLQWRVA
binds	Eml4 (protein, UniProt Q3UMY5 1-988) MDGFAGSLDDSISAASTSDVQDRLSALESRVQQQEDEITVLKAALADVLRRLAISEDHVASVKKSMPSKGQPSLREAISMSCITNGSGISRKQNHTSSVSIARKETLSSAAKSGTEKKKEKPQGQREKKEDSHSNDQSPQIRASPSPQPSSQPLQINRQTPESKSSAPIKSIKRPPTAEKSHNSWENSDDSRNKLMKTVSTSKLISKVIKNADKHKDVIVNQAKMSTREKNSQEGEYIKMFMRGRPITMFIPSDVDNYDDIRTELPPEKLKLEWVYGYRGKDCRANVYLLPTGEIVYFIASVVVLFNYEERTQRHYLGHTDCVRCLAVHPDKIRIATGQIAGVDKDGRPLQPHVRVWDSVSLTTLHVIGLGTFERGVGCLDFSKADSGVHLCVIDDSNEHMLTVWDWQKKSKIAEIKTTNEVVLAVEFHPTDANTIITCGKSHIFFWTWSGNSLTRKQGIFGKYEKPKFVQCLAFLGNGDVLTGDSGGVMLIWSKTMVEPPPGKGPKGVYQINRQIKAHDGSVFTLCQMRNGMLLTGGGKDRKIILWDHDLNLEREIEVPDQYGTIRAVAEGRAEQFLVGTSRNFILRGTFNDGFQIEVQGHRDELWGLATHPFKDLLLTCAQDRQVCMWNSVEHRLEWTRLVDEPGHCADFHPSGTVVAIGTHSGRWFVLDAETRDLVSIHTDGNEQLSVMRYSVDGTLLAVGSHDNFIYLYTVLENGRKYSRYGKCTGHSSYITHLDWSPDNKHIMSNSGDYEILYWDIENGCKLIRNRSDCKDIDWTTYTCVLGFQVFGVWPEGSDGTDINALVRSHNRRVIAVADDFCKVHLFQYPCSKAKAPSHKYSAHSSHVTNVSFTHNDSHLISTGGKDMSIIQWKLVEKLPVPQNEVITDASVTKTPASSSETARPSNSPPLPPSLPLTGTAEEESRMGSSPTLVENSLEQIAEPSEEQSEWGSEDLGVVIDEEPASELSETQGATELPEEERGITPLC

These are yes or no findings as the source states them, for the method shown. In cells and extracts the contact can be indirect. These calls come from enrichment with a bait or labelling near it, and not all partners need be listed. Sequences can lack the tags named with a protein.
